One substance from article PMC10754003 can be followed below.

Test [1] has as its target T1, Arabidopsis TPR1, full length, yeast two-hybrid fusion (Arabidopsis thaliana) (UniProt Q0WV90).
T1 sequence: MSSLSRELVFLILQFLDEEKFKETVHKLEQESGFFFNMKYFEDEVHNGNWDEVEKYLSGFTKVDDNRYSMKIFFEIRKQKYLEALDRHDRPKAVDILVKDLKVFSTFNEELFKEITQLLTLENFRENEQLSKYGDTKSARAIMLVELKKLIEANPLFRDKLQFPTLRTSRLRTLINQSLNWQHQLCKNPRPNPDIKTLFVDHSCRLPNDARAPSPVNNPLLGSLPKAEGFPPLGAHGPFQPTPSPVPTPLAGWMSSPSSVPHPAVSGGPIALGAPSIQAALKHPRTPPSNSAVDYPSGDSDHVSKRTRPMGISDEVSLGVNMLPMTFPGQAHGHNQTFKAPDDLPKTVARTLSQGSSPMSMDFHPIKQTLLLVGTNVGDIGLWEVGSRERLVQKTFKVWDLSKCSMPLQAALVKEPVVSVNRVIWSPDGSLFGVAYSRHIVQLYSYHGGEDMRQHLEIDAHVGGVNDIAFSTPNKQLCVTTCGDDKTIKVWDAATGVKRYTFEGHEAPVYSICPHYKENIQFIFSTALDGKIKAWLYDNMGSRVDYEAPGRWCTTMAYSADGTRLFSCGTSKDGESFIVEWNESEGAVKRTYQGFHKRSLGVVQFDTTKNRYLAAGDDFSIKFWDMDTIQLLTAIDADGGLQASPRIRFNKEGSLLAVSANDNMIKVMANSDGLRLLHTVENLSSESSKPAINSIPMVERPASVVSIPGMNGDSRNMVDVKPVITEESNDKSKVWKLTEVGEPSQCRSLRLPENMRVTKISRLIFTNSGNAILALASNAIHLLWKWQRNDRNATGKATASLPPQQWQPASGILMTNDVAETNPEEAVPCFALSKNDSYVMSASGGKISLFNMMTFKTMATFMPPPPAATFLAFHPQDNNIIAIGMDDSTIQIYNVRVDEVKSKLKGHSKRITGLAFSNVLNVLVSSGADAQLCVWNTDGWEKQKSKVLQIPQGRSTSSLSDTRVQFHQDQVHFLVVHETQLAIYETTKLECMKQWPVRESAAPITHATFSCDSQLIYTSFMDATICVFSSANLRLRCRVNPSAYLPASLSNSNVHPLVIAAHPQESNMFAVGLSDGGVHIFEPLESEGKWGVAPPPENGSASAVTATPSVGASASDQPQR
Nature of the test: two-hybrid.

The target of test [2] is T2, Arabidopsis TPL (AtTPL), yeast two-hybrid fusion (Arabidopsis thaliana) (UniProt Q94AI7).
T2 sequence: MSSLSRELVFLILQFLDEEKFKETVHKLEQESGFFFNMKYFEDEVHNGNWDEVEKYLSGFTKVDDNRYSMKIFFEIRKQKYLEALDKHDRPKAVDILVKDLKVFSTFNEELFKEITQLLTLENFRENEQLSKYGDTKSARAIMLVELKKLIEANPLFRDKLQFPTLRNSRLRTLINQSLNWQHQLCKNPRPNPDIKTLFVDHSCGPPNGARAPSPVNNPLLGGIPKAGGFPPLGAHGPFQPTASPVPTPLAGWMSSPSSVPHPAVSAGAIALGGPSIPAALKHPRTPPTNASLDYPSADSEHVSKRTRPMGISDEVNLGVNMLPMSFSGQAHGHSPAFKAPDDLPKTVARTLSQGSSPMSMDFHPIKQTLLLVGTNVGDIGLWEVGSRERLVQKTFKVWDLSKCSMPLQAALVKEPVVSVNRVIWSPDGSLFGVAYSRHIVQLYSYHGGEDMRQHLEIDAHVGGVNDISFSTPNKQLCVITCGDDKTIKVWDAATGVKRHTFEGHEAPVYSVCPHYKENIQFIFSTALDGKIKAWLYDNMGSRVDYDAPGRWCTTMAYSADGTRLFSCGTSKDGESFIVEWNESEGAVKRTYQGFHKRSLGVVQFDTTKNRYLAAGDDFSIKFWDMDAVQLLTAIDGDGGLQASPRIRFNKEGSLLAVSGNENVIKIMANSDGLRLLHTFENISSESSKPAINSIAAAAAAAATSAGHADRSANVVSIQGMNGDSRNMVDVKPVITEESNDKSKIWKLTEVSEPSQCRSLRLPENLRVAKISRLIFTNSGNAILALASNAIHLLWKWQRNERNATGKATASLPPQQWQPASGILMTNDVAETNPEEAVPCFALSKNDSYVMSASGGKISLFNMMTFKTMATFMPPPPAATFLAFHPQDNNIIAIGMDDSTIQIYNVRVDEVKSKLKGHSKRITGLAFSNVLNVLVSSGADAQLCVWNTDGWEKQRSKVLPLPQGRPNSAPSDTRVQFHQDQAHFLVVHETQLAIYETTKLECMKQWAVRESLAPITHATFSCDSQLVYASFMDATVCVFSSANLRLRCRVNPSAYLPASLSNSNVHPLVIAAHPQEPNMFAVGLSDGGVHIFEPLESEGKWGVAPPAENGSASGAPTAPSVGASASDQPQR
Nature of the test: two-hybrid.

These are yes or no findings as the source states them, for the method shown. Binding calls can cover weak binding; strength is not graded here. Where a sequence is shown, tags or fusion partners need not be part of it.

As to “SIX8Foa, yeast two-hybrid fusion (Fusarium oxysporum strain Fo5176)”, the binding result in test [1] and in test [2] was “binds” throughout.
